Results from publication PMC4016276.
No constants are given. Whether binding was seen depends on the method and setting. In cells and extracts the contact can be indirect. Some results given as binding are weak or reduced against the parent protein; the word gives no strength.

Biological target: Wag31 (Mycobacterium tuberculosis H37Rv) (UniProt P9WMU1)
Test: co-IP; in vitro Co-IP: 35S-methionine-labelled, in vitro translated HA-tagged h-protein and c-Myc-tagged c-protein mixed 1:1 with goat anti-mouse IgG magnetic beads (Dynabeads M-450) coated with monoclonal anti-HA antibodies; SDS-PAGE (4-20%) and phosphorimaging

B1: Wag31 (protein, UniProt P9WMU1 1-260)
chain: MPLTPADVHNVAFSKPPIGKRGYNEDEVDAFLDLVENELTRLIEENSDLRQRINELDQELAAGGGAGVTPQATQAIPAYEPEPGKPAPAAVSAGMNEEQALKAARVLSLAQDTADRLTNTAKAESDKMLADARANAEQILGEARHTADATVAEARQRADAMLADAQSRSEAQLRQAQEKADALQADAERKHSEIMGTINQQRAVLEGRLEQLRTFEREYRTRLKTYLESQLEELGQRGSAAPVDSNADAGGFDQFNRGKN
modifications: L-[35S]-methionine-labelled
B1 was tested, and the binding was “binds”.
